Assay [1] in a line: qHTS assay for small molecule antagonists of peroxisome proliferator-activated receptor delta signaling (AID 588535).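 Further: cells co-treated with a PPAR-delta agonist as stimulator during compound exposure.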 The following applies: HEK293T PPARd-UAS-bla, beta-lactamase FRET ratio, 18 h; 460 nm channel.
Assay [2] can be described thus: qHTS assay for small molecule agonists of retinoid X receptor alpha signaling (AID 588544). As to conditions: HEK293T RXRa-UAS-bla, beta-lactamase reporter, 18 h; 530 nm emission. (Quantitative high-throughput screening tests each substance at several concentrations.)
Assay [3] can be described thus: qHTS assay for small molecule antagonists of retinoid X receptor alpha signaling (AID 588546).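 Further: cells stimulated with 9-cis-retinoic acid as agonist; on the % scale 0 is the no-effect control and ±100 the full control effect.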 As to conditions: HEK293T RXRa-UAS-bla, beta-lactamase ratio, antagonist mode; measured here: W530 green channel, cytotoxicity proxy. Summed up: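 Beta-lactamase reporter inhibition, read as CCF4 fluorescence ratio (ex 405, em 460/530 nm) after 2 h at RT. HEK293T UAS-bla cells, 2500/well, were stimulated with 9-cis-RA at 500 or 100 nM final alongside test compound for 18 h at 37 C.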

Assay [4] in a line: qHTS drug screen for cell cycle checkpoint inhibitors in PARPi-resistant BRCA-mutant ovarian cancer cell lines. (AID 1963452). The following applies: PEO1/OlaR viability, CellTiter-Glo luminescence, 96 h, stronger effect = lower value. The text has this:
Women's Malignancies Branch, Center for Cancer Research (CCR),
National Cancer Institute (NCI), National Institutes of Health (NIH), Bethesda, MD
Poly (ADP-ribose) polymerase inhibitors (PARPis) have changed the treatment paradigm in breast cancer gene (BRCA) - mutant high-grade serous ovarian carcinoma (HGSC). However, most patients eventually develop resistance to PARPis, highlighting an unmet need for improved therapeutic strategies. Using high-throughput drug screens, we identified ataxia telangiectasia and rad3-related protein/checkpoint kinase 1 (CHK1) pathway inhibitors as cytotoxic and further validated the activity of the CHK1 inhibitor (CHK1i) prexasertib in PARPi-sensitive and -resistant BRCA-mutant HGSC cells and xenograft mouse models. CHK1i monotherapy induced DNA damage, apoptosis, and tumor size reduction. We then conducted a phase 2 study (NCT02203513) of prexasertib in patients with BRCA-mutant HGSC. The treatment was well tolerated but yielded an objective response rate of 6% (1 of 17; one partial response) in patients with previous PARPi treatment. […] BRCA reversion mutation in previously PARPi-treated BRCA-mutant patients was not associated with resistance to CHK1i. […]
6; Detection; Luminescence, PHERAstar (BMG Labtech) plate reader. […]
6. Luminescence readings were taken using PHERAstar (BMG Labtech). […]

Assay [5] is described as follows: qHTS for identification of novel therapeutic agents for treatment of microphthalmiaassociated transcription factor (MiT) renal cell carcinoma (RCC) (AID 1963991).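 Further: curves scaled with 100% = DMSO viability and 0% = empty wells.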 As to conditions: TFE3-RCC UOK109 viability, CellTiter-Glo, 48 h, stronger effect = lower value. The text has this:
PI: Marston Linehan Ph.D.
Urologic Oncology Branch, Center for Cancer Research (CCR)
National Cancer Institute (NCI), National Institute of Health (NIH), Bethesda, Maryland
MiT-Renal Cell Carcinoma (RCC) is characterized by genomic translocations involving microphthalmia-associated transcription factor (MiT) family members TFE3, TFEB, or MITF. MiT-RCC represents a specific subtype of sporadic RCC that is predominantly seen in young patients and can present with heterogeneous histological features making diagnosis challenging. Moreover, the disease biology of this aggressive cancer is poorly understood and there is no accepted standard of care therapy for patients with advanced disease. Tumor-derived cell lines have been established from human TFE3-RCC providing useful models for preclinical studies. TFE3-RCC tumor derived cell lines and their tissues of origin were characterized by IHC and gene expression analyses. An unbiased high-throughput drug screen was performed to identify novel therapeutic agents for treatment of MiT-RCC. […] The results of a high-throughput small molecule drug screen utilizing three TFE3-RCC tumor-derived cell lines identified five classes of agents with potential pharmacological efficacy, including inhibitors of phosphoinositide-3-kinase (PI3K) and mechanistic target of rapamycin (mTOR), and several additional agents, including the transcription inhibitor Mithramycin A. Upregulation of the cell surface marker GPNMB, a specific MiT transcriptional target, was confirmed in TFE3-RCC and evaluated as a therapeutic target using the GPNMB-targeted antibody-drug conjugate CDX-011. […]
6; Detection; Luminescence; ViewLux plate reader (PerkinElmer). […]
1. Quantitative high-throughput screening (qHTS) of 1912 pharmacologically defined small molecule compounds was conducted on three TFE3-fusion cell lines bearing three different fusion partners (UOK109, UOK124, UOK145). […]
4. Viability was assessed by adding 3uL of CellTiter-Glo detection reagent (Promega). […]
6. Luminescence was measured on a ViewLux plate reader (PerkinElmer). […]

Molecules are shown by their SMILES. Where “and” joins values, the source holds several entries; their conditions need not be identical. Equal entries are not always repeated. This is one part of the list.

On to `ClCCOP(OCCCl)OCCCl`, for which the max response in assay [1] was 4.92%; in assay [2] it was -18.7%; in assay [3], -2.98%.

Regarding `CCOC(=O)C(=O)CBr`, the Z-AUC turned out to be 0.611 in assay [4] (measured here: PEO1 parental Z-AUC) and 0.444 in assay [4] (measured here: PEO4 Z-AUC). The values for the z-score in assay [5] (measured here: UOK109 Z-AUC), in assay [5] (measured here: UOK124 Z-AUC) and in assay [5] (measured here: UOK145 Z-AUC) were 1, 1.29 and -0.0696, respectively.

Consider `CCOP(=O)(Cl)Cl`, for which the max response was 14% and -34.7% in assay [1]; -0.493% and -13.6% in assay [2]; -5.19% in assay [3].

Take `O=[N+]([O-])c1ccccc1[N+](=O)[O-]`: the max response is -33.9% in assay [1] and 1.9% in assay [3].

These data come from PubChem BioAssay (NCATS).
